In PMC4102811:
Results are given in words; binding and its absence hold for the method and conditions named. In cells and extracts the contact can be indirect. Binding calls can cover weak binding; strength is not graded here. Tags and fused reporters may be left off the sequences shown.

Biological target: T1, Myc-TRAF2 (UniProt Q12933)
T1 sequence: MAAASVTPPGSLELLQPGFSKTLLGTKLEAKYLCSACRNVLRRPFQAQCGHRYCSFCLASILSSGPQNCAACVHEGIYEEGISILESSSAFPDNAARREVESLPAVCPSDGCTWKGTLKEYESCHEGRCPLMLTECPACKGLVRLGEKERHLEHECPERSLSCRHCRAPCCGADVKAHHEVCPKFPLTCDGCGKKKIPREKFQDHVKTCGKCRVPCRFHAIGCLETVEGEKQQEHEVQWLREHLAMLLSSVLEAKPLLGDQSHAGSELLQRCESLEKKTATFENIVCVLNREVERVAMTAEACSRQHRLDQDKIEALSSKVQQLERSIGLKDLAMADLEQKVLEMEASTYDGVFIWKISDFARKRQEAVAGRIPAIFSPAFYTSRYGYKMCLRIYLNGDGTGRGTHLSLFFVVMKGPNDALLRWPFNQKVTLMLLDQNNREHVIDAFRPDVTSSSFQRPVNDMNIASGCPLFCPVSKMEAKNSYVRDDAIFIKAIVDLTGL
Assay: co-IP; 293T cells co-transfected with the two tagged proteins, 10 uM MG132 overnight before harvest; EBC lysis buffer (50 mM Tris pH 8.0, 120 mM NaCl, 0.5% NP-40); 1 mg lysate with anti-tag antibody (FLAG, HA or Myc) overnight at 4°C; five washes with NETN buffer (100 mM NaCl, 0.5% NP-40); western blot

Row | binding | Substance
1 | binds | FLAG-DAB2IP S847A
2 | binds | FLAG-DAB2IP (wild-type)
